According to article PMC9596432:
These are yes or no findings as the source states them, for the method shown. Binding seen in cells or lysates may run through a third protein. Here binding means that the protein was enriched with, or labelled near, the bait; the list need not be complete.

Molecular target: FimL-3xFLAG (Acinetobacter baylyi ADP1)
Assay: affinity purification with mass spectrometry; FimL-3xFLAG captured from A. baylyi lysate on α-FLAG magnetic beads (Buffer 2: 50 mM Tris-Cl pH 7.4, 150 mM NaCl, 1 mM EDTA, 10 mM MgCl2, 0.1% Triton X-100, 2% glycerol; 4 °C, 2 h), eluted with 3X-FLAG peptide, in-gel trypsin digestion, LC-MS/MS

B1: FimV homologue encoded by gene ACIAD0477 (protein, UniProt Q6FEV0 1-384)
chain: MLYVIPFIILLVVAIIFIIRQRRQNASSSSHAKNNKNNEIKTSENDLSAAKTPVTIDPNIHERIDHLIDIGHLSAAEALINQTLNRDPSRHDLYLYLLDLHLRQNDELGIKQLIQNLQQLQLHDVLNQIEGKYRNTHEQKEKYAKIIQQKQQNIQDITRTASPTATAAIKVETTHTNPAPVQKHIIEEHQSLEFNPKPIAPVNKSEKSNTVPHQDISFVLEMADQITVSPKKNEAAAEVKVENQTRKLAASPPQALNADQEASHLAQPKVVEPRIDTPPVHTPVPPPTLTRQDTPPITLKQHLPPVAESLQPQPAQITVDHDPLIQAFPELANLDETQLDLELAEQYIELGAYASAQILLNQNESKFSAQQLELSKKLLNRMAS
- binding: binds
